Measurements reported in PubChem BioAssay AID504804 (Drosophila RNAi Screening Center, 2011)

Assay: 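Knock-downs shielding fly cells from apoptosis caused by DNA damage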 (primary screen)
System: Drosophila Kc cells
Knock-down reagent: long dsRNA against Drosophila genes, 0.5 µg dsRNA per well
Timing: 96 h (48 h knock-down, then 48 h drug)
Treatment: doxorubicin 5 µg/ml for 48 h, added 48 h after dsRNA
Measurement: 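Viability measured as cellular ATP by luminescence after 48 h knock-down then 48 h doxorubicin at 5 µg/ml; unnormalised plate counts for each replicate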
Reading the numbers: raw ATP luminescence: higher = more viable cells, protection from doxorubicin
Rule for the call: 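Active when both duplicate wells lie at least 2 SD above the plate mean and protection is confirmed by rescreening and independent dsRNAs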
The deposit covers about 19,000 reagents; shown is an unselected part of those with a known target gene and a result. In the full data, 47 (0.25%) got an active call. 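Signals are raw, not normalised; exact z-scores behind calls not deposited; actives needed confirmation, so some wells reaching 2 SD are inactive.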 A number with no mark means an inactive call. The numbers tell different reagents against one gene apart.

| gene | reagent | SD above plate mean | raw ATP luminescence, replicate 1 | raw ATP luminescence, replicate 2 |
| --- | --- | --- | --- | --- |
| CG17145 | 1 | – | 55690 | 66437 |
| Indy (I'm not dead yet) | 1 | – | 21543 | 20207 |
| peg (pegasus) | 1 | – | 58810 | 59200 |
| CG10752 | 1 | – | 44333 | 36250 |
| mRpL1 (mitochondrial ribosomal protein L1) | 1 | – | 51850 | 49660 |
| CG12024 | 1 | – | 62000 | 62567 |
| CG7173 | 1 | – | 14933 | 15763 |
| CG9308 | 1 | – | 44960 | 46730 |
| cu (curled) | 1 | – | 55117 | 51920 |
| cu (curled) | 2 | – | 54240 | 60433 |
| Tmtc3 (Transmembrane O-mannosyltransferase targeting cadherins 3) | 1 | at least 2 SD above plate mean | 95133 | 88617 |
| muc (midline uncoordinated) | 1 | – | 31380 | 19100 |
| soti (scotti) | 1 | – | 51617 | 20643 |
| mei-41 (meiotic 41) | 1 | – | 2.33e5 | 2.52e5 |
| CG2278 | 1 | – | 40040 | 40360 |
| ms(3)76Ba (male sterile (3) 76Ba) | 1 | – | 79733 | 49870 |
| CG31897 | 1 | – | 3.30e5 | 3.13e5 |
| CG11309 | 1 | – | 27577 | 22660 |

As entered above:
For “raw ATP luminescence, replicate 2”, CG7173 shows 15763
Value of CG11309 under “raw ATP luminescence, replicate 1”: 27577

Further results:
| gene | reagent | SD above plate mean | raw ATP luminescence, replicate 1 | raw ATP luminescence, replicate 2 |
| --- | --- | --- | --- | --- |
| CG10365 | 1 | – | 47670 | 66140 |
| CG6567 | 1 | – | 64547 | 49387 |
| shep (alan shepard) | 1 | – | 40360 | 1.72e5 |
| shep (alan shepard) | 2 | – | 65620 | 69530 |
| shep (alan shepard) | 3 | – | 34917 | 33643 |
| CG13833 | 1 | – | 57290 | 65320 |
| Ugt303B3 (UDP-glycosyltransferase family 303 member B3) | 1 | – | 55690 | 62720 |
| TpnC41C (Troponin C at 41C) | 1 | – | 55657 | 49120 |
| skl (sickle) | 1 | – | 61683 | 51280 |
| CG30287 | 1 | – | 59213 | 66917 |
| CG5435 | 1 | – | 76093 | 75697 |
| CG14965 | 1 | – | 39930 | 26310 |
| CG15368 | 1 | – | 2.67e5 | 2.33e5 |
| Ndfip (Nedd4 family interacting protein) | 1 | – | 28197 | 22000 |
| Dph1 (Diphthamide biosynthesis 1) | 1 | – | 51910 | 38333 |
| RpL37A (Ribosomal protein L37A) | 1 | – | 21573 | 19220 |
